The values that follow are results of earlier work, collected in patent US6172079A, “5-substituted-3-oxadiazolyl-1,6-naphthyridin-2(1H)-one derivatives” (Dainippon Pharmaceutical Co., Ltd., priority 1997, dated 2001).

For the series, the system named is GABAA receptor. The settings on record: background statement; cited from earlier work.

As to `CN1C(=O)CN=C(c2ccccc2)c2cc(Cl)ccc21` [diazepam], the “uptake of Cl ion into cells” value is on record as “decreased”.
